The record followed here is US20040110821A1, “GAL3 receptor antagonists for the treatment of affective disorders” (priority 2002, published 2004).

Structures are written as SMILES.

This series deals with NE transporter. Put plainly: Binding at native NE transporter. To be noted: Ki at rNE Uptk divided by Ki at human GAL3.
Consider `O=C1C(=Nc2ccc(Br)cc2)c2ccccc2N1c1ccccc1` [Example 98, 3-[(4-BROMOPHENYL)IMINO]-1-PHENYL-1,3-DIHYDRO-2H-INDOL-2-ONE], for which the “selectivity ratio rNE Uptk” value is reported as above 100.
The same measure for `COc1cccc(Nc2cc(N3CCCCC3)nc(N(C)CCc3c[nH]c4ccccc34)n2)c1` [Example 17]: above 100; for `Cc1ccc(Nc2cc(N3CCCCC3)nc(N(C)CCc3ccccc3)n2)cc1` [Example 22]: above 100; for `Cc1ccc(Nc2cc(N3CCCCC3)nc(N3CCN(c4ncccc4C(F)(F)F)CC3)n2)cc1` [Example 34]: above 100.
The value for `O=C1C(=Nc2cccc(C(F)(F)F)c2)c2ccccc2N1c1ccccc1` [Example 92, 1-PHENYL-3-[[3-(TRIFLUOROMETHYL)PHENYL]IMINO]-1,3-DIHYDRO-2H-INDOL-2-ONE] was above 100.
The same measure for `O=C1C(=Nc2ccc(C(F)(F)F)cc2)c2ccccc2N1c1ccccc1` [Example 95, 1-PHENYL-3-[[4-(TRIFLUOROMETHYL)PHENYL]IMINO]-1,3-DIHYDRO-2H-INDOL-2-ONE]: above 100.
Take `Cc1ccc(Nc2cc(N3CCCCC3)nc(N(C)CCc3c[nH]c4ccccc34)n2)cc1` [Example 11]: the “selectivity ratio rNE Uptk” value is given as above 100.
`O=C1C(=Nc2cccc(Cl)c2)c2ccccc2N1c1ccccc1` [Example 94, 3-[(3-CHLOROPHENYL)IMINO]-1-PHENYL-1,3-DIHYDRO-2H-INDOL-2-ONE]: the “selectivity ratio rNE Uptk” value was above 30.
`CN(CCc1c[nH]c2ccccc12)c1nc(Nc2ccc(F)c(F)c2)cc(N2CCCCC2)n1` [Example 15]: the “selectivity ratio rNE Uptk” value is above 100.
As to `Cc1ccc(Nc2cc(N(C)C)nc(N(C)CCc3c[nH]c4ccccc34)n2)cc1` [Example 77], the “selectivity ratio rNE Uptk” value is listed as above 100.
The value for `O=C1C(=Nc2ccc(Cl)cc2)c2ccccc2N1c1ccccc1` [Example 97, 3-[(4-CHLOROPHENYL)IMINO]-1-PHENYL-1,3-DIHYDRO-2H-INDOL-2-ONE] was above 30.
